Assay [1] deals with T1, GST-tagged KaiB3 (Synechocystis sp. strain PCC 6803) (UniProt Q55819).
T1 sequence: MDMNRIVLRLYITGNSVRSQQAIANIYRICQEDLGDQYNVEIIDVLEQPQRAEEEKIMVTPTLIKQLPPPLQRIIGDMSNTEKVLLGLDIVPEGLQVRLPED
Description: pull-down; in vitro pull-down: GST-tagged KaiB proteins on the affinity matrix, Synechocystis whole-cell extracts; methods not shown; only the target purified.

For assay [2], the target named is T2, GST-tagged KaiB1 (Synechocystis sp. strain PCC 6803) (UniProt P74645).
T2 sequence: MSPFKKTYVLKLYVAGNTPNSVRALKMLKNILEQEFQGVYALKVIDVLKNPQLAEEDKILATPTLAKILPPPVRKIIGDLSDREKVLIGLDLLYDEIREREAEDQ
The assay is described as above.

Assay [3] addresses T3, KaiC1 (Synechocystis sp. strain PCC 6803), GAL4 AD or BD fusion (Synechocystis sp. strain PCC 6803) (UniProt P74646).
T3 sequence: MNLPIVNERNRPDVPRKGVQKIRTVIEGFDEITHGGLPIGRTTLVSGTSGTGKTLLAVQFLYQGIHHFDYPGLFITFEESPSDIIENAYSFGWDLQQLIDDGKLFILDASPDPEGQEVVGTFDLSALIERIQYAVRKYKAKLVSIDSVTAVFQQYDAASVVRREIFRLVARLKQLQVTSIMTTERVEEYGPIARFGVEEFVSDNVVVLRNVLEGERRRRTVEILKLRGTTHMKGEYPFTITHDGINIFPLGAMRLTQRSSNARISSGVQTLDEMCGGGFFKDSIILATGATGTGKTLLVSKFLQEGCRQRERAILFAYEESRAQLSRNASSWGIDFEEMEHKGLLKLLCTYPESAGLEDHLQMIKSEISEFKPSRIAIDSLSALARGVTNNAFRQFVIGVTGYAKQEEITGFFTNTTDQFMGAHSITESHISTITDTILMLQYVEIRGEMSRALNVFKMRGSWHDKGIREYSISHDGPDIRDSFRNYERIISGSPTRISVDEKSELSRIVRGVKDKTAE
Description: two-hybrid; yeast Y190, GAL4 AD and BD fusions (N or C terminus), colony-lift filter assay of beta-galactosidase activity.

These are yes or no findings as the source states them, for the method shown. For part of these data: In cells and extracts the contact can be indirect. Some results given as binding are weak or reduced against the parent protein; the word gives no strength. Where a sequence is shown, tags or fusion partners need not be part of it.

Experimental findings from PMC6989803, “Synechocystis KaiC3 Displays Temperature- and KaiB-Dependent ATPase Activity and Is Important for Growth in Darkness” (Journal of Bacteriology, 2019) are described below.

B1: KaiC1 in Synechocystis whole-cell extracts (protein, UniProt P74646 1-519)
chain: MNLPIVNERNRPDVPRKGVQKIRTVIEGFDEITHGGLPIGRTTLVSGTSGTGKTLLAVQFLYQGIHHFDYPGLFITFEESPSDIIENAYSFGWDLQQLIDDGKLFILDASPDPEGQEVVGTFDLSALIERIQYAVRKYKAKLVSIDSVTAVFQQYDAASVVRREIFRLVARLKQLQVTSIMTTERVEEYGPIARFGVEEFVSDNVVVLRNVLEGERRRRTVEILKLRGTTHMKGEYPFTITHDGINIFPLGAMRLTQRSSNARISSGVQTLDEMCGGGFFKDSIILATGATGTGKTLLVSKFLQEGCRQRERAILFAYEESRAQLSRNASSWGIDFEEMEHKGLLKLLCTYPESAGLEDHLQMIKSEISEFKPSRIAIDSLSALARGVTNNAFRQFVIGVTGYAKQEEITGFFTNTTDQFMGAHSITESHISTITDTILMLQYVEIRGEMSRALNVFKMRGSWHDKGIREYSISHDGPDIRDSFRNYERIISGSPTRISVDEKSELSRIVRGVKDKTAE
For the molecule B1, the binding result in assay [1] and in assay [2] was “binds” throughout.

B2: KaiB1 (Synechocystis sp. strain PCC 6803), GAL4 AD or BD fusion (protein, UniProt P74645 1-105)
chain: MSPFKKTYVLKLYVAGNTPNSVRALKMLKNILEQEFQGVYALKVIDVLKNPQLAEEDKILATPTLAKILPPPVRKIIGDLSDREKVLIGLDLLYDEIREREAEDQ
Consider B2, for which the binding entry in assay [3] was “binds”.
